Measured values reported in paper PMC11016227.
These are yes or no findings as the source states them, for the method shown. Binding seen in cells or lysates may run through a third protein. Some binding calls cover weakened binding; strength is not graded here.

Sequences of proteins named here, by UniProt entry; tags and fusion partners are left off. Residues count along the entry.
UniProt Q9UM47, residues 40-2321: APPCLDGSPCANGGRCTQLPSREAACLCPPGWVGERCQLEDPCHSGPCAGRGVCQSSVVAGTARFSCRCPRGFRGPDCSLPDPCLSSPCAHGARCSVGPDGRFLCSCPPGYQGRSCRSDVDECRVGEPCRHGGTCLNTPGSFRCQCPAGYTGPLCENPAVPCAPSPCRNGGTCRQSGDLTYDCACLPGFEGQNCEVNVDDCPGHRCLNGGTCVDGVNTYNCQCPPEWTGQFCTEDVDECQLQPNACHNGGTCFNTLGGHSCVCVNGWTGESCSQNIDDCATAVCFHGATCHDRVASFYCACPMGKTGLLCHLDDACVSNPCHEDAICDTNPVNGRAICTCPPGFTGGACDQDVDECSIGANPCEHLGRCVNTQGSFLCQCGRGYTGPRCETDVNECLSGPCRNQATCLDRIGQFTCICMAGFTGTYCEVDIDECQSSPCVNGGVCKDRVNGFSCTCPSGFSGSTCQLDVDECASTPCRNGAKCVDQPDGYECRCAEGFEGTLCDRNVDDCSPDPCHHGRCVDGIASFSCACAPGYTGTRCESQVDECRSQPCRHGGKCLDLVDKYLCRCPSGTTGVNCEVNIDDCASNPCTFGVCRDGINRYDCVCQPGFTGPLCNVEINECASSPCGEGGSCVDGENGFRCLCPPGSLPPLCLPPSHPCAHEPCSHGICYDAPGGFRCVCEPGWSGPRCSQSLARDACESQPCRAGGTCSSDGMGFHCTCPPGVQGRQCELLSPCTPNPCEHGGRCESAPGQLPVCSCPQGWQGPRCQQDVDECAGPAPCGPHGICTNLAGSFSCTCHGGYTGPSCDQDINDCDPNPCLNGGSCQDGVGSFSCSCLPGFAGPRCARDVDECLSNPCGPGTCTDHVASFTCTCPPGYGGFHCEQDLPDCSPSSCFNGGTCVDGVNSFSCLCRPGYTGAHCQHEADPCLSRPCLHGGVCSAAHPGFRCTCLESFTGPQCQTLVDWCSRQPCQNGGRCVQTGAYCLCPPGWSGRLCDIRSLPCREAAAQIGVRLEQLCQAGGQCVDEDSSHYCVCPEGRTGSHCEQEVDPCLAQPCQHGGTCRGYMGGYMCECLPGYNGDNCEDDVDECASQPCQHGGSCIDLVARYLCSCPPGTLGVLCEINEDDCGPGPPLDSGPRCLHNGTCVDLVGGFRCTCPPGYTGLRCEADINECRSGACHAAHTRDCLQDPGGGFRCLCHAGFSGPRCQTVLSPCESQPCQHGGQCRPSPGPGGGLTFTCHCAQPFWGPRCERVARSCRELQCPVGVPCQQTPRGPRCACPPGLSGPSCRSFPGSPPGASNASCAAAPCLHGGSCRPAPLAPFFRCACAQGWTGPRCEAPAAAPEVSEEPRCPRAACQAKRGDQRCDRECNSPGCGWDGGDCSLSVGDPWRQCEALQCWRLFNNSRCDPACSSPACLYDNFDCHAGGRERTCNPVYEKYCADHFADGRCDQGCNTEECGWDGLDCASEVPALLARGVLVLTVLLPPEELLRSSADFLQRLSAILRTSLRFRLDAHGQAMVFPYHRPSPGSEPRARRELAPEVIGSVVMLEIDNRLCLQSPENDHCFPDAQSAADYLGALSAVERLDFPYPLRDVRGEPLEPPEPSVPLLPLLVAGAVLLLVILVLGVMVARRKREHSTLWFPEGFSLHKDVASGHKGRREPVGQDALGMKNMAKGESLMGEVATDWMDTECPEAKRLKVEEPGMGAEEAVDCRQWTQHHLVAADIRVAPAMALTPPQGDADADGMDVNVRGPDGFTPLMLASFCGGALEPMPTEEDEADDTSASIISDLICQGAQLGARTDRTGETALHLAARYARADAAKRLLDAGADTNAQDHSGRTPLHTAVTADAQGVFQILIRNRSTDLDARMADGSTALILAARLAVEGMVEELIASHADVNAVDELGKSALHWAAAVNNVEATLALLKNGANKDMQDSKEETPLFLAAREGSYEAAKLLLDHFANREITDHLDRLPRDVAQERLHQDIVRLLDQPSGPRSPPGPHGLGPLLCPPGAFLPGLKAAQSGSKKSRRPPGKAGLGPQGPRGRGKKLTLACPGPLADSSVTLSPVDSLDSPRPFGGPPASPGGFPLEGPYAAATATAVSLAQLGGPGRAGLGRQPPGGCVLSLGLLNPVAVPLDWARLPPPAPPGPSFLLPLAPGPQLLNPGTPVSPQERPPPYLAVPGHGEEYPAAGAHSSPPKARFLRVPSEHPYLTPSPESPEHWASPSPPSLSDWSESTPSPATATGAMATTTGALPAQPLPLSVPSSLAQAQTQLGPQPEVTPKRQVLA
UniProt P78504, residues 34-1218: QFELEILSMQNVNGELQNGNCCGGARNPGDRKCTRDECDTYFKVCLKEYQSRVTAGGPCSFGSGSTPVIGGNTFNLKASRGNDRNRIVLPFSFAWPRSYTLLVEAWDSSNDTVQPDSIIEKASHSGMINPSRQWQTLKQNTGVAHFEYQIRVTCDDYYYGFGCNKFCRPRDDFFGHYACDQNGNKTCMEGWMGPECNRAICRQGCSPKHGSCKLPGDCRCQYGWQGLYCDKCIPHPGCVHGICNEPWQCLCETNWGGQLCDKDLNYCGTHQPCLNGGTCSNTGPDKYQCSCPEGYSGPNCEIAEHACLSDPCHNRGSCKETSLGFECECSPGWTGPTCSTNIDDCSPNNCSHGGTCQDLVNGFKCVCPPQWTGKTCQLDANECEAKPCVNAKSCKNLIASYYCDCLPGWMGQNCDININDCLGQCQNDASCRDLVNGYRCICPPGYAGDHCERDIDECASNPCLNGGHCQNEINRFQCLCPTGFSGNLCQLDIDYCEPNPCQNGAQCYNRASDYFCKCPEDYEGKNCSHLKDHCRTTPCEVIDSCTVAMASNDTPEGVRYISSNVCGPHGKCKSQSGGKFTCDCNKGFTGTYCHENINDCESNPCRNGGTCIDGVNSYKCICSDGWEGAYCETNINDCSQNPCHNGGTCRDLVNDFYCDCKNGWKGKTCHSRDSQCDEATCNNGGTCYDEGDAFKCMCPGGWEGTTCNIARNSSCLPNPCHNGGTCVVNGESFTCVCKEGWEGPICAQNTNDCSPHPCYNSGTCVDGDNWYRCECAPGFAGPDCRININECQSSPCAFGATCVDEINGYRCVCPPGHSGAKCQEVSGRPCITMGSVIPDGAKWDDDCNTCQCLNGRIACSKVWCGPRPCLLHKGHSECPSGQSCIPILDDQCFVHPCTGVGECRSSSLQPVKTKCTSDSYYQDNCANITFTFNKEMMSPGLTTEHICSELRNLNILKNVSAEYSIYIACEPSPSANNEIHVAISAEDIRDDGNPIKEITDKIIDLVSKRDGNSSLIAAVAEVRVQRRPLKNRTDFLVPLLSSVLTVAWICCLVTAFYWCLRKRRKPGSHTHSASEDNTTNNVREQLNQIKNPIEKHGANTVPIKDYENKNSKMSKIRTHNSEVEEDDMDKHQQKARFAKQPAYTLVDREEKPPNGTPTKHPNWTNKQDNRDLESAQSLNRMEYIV

Target: Notch3 receptor (human (endogenous in SKOV3 and OAW42)) (UniProt Q9UM47)
Experiment: proximity ligation; SKOV3 and OAW42 cells, control or treated 24 h with 0.25 mg/ml recombinant COMP; fixed with 4% paraformaldehyde, permeabilised with 0.1% Triton X-100; primary antibodies to Notch3 and Jagged1, NaveniFlex GM; spots per cell counted by confocal microscopy

Jagged1 ligand (from UniProt P78504 34-1218)
binding: binds
